In paper PMC3507880, “Rationale-Based Engineering of a Potent Long-Acting FGF21 Analog for the Treatment of Type 2 Diabetes” (PLoS ONE, 2012):
Where a chain is given by its changes, count along the chain named. Results are given in words; binding and its absence hold for the method and conditions named. Blank lines part the entries; values can stand above or below the binder they belong to.

Assays:
[1] = target: wild type human mature FGF21 (human) (UniProt Q9NSA1); assay: SEC; SEC-HPLC (Bio-Sil SEC-250, 2x PBS with 2% isopropyl alcohol); 65 mg/ml in 10 mM potassium phosphate, 5% sorbitol, pH 8.0; time 0; both purified
Fc-FGF21(RG) (human) [2] = target: Fc-FGF21(RG) (human) (UniProt Q9NSA1); assay: as above
Fc-FGF21(RG) (human) [3] = target: Fc-FGF21(RG) (human) (UniProt Q9NSA1); assay: SEC; SEC-HPLC (Bio-Sil SEC-250, 2x PBS with 2% isopropyl alcohol); 65 mg/ml in 10 mM potassium phosphate, 5% sorbitol, pH 8.0; stored at 25°C or 4°C for 2 to 9 days; high molecular weight species as % of total; both purified
[4] = target: Fc-FGF21 (N-terminal Fc fusion of human mature FGF21, wild type) (human) (UniProt Q9NSA1); assay: SEC; SEC-HPLC (Bio-Sil SEC-250, 2x PBS with 2% isopropyl alcohol); 65 mg/ml in 10 mM potassium phosphate, 5% sorbitol, pH 8.0; time 0; both purified

B1: wild type human mature FGF21 (protein)
chain: HPIPDSSPLLQFGGQVRQRYLYTDDAQQTEAHLEIREDGTVGGAADQSPESLLQLKALKPGVIQILGVKTSRFLCQRPDGALYGSLHFDPEACSFRELLLEDGYNVYQSEAHGLPLHLPGNKSPHRDPAPRGPARFLPLPGLPPALPEPPGILAPQPPDVGSSDPLSMVGPSQGRSPSYAS
binding [1]: no binding (condition: at time 0, 65 mg/ml)

binding (Fc-FGF21(RG) (human) [2]): no binding (tested: 65 mg/ml)
binding (Fc-FGF21(RG) (human) [3]): no binding (tested: 65 mg/ml)
B2: Fc-FGF21(RG) (protein)
chain: B1 chain with L98R, P171G

B3: Fc-FGF21 (N-terminal Fc fusion of human mature FGF21, wild type) (Fc fusion, UniProt Q9NSA1 29-209, looked up)
chain: B1 chain
binding [4]: no binding (condition: at time 0, 65 mg/ml)
